Molecules are shown by their SMILES. Several values for one entry are separate records, joined by “and”; a condition that tells them apart may be missing. Equal entries are not always repeated. The list shows a part of the results. Repeats in this data set agree poorly, so a single value says little.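 HEK293T cells were given each compound shortly before transfection with a reporter in which red mCherry is followed by the SARS-CoV-2 frameshift element and then GFP in the −1 frame, so GFP appears only after frameshifting.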

The test system of this assay is HEK293T. The assay is described as follows: percent viability (nuclei count) relative to control; higher = more viable cells. As to conditions: 10 µM; 24 h.
For the molecule `CNS(=O)(=O)Cc1ccc2[nH]cc(CCN(C)C)c2c1` [Sumatriptan Succinate], the percent viability was 249%.

Regarding `c1ccc(CCNc2nc(-c3ccccc3)cs2)cc1` [fanetizole], the percent viability turned out to be 229%.

Take `C=C[C@@]1(C)CC(=O)[C@]2(O)[C@@]3(C)[C@@H](O)CCC(C)(C)[C@@H]3[C@H](O)[C@H](OC(C)=O)[C@@]2(C)O1` [colforsin]: the percent viability is 128%.

Regarding `CC(C)(O/N=C(\C(=O)N[C@@H]1C(=O)N2C(C(=O)[O-])=C(C[n+]3ccccc3)CS[C@H]12)c1csc(N)n1)C(=O)O` [Ceftazidime], the percent viability was 215% and 293%.

Regarding `CN(C)[C@@H]1C(=O)C(C(=O)NCNCCCC[C@H](N)C(=O)O)=C(O)[C@@]2(O)C(=O)C3=C(O)c4c(O)cccc4[C@@](C)(O)[C@H]3C[C@@H]12` [lymecycline], the percent viability is 233%.

Consider `CC1CCN(CCCC(=O)c2ccc(F)cc2)CC1` [melperone], for which the percent viability turned out to be 329%.

`CCNC(=O)N1CCN(CCCC(c2ccc(F)cc2)c2ccc(F)cc2)CC1` [amperozide]: the percent viability worked out at 191%.

The values are drawn from the supplement of paper PMC8256030.
